Experimental data taken from PubChem BioAssay AID248 (DTP/NCI, 2004).
The list shows only some results of the screen, not a fair sample: it gathers tests that were run many times, whatever their T/C, doses with no T/C, and many T/C values between a quarter and a half above the control. Further doses and runs are listed elsewhere. T/C gives the treated animals as a percentage of the vehicle group. Some doses have a count of surviving animals in place of a T/C: the source holds a T/C of zero for them, seemingly a mark for toxic or unscored doses. Some survivor counts are full or nearly so, which does not show that the dose was tolerated: the source hardly ever lists a survival T/C far under the control, and the zero likely stands for such cases as well. Counts of survivors are from the toxicity check (mostly the fifth day) where no day follows; animals may have died later. Schedule codes are those of the source, read here as Q, the interval in days (D) or hours (H), X, the number of doses. Some schedule codes hold Z or #, which are not explained here. Some doses were run more than once; the values are given in rising order. Where survival is the endpoint, the PubChem record calls one and a half times the control and up active, and a quarter to a half above the control has no call in these data; cut-offs in other NCI protocols can differ. Some T/C values are followed by the survivors on the day toxicity was checked, most often the fifth; without a count, all were alive then.

System: L1210 leukemia ip in BDF1 mice, survival T/C
Experiment: NCI In Vivo Anticancer Drug Screen. Data for tumor model L1210 Leukemia (intraperitoneal) in B6D2F1 (BDF1) mice
Details: T/C endpoint: mean survival time, higher T/C = longer survival
[1] = dose: 400.0 mg/kg/injection, schedule: Q04DX003 (ip), vehicle: saline
[2] = dose: 200.0 mg/kg/injection, schedule: Q04DX002 (ip), vehicle: saline with Tween-80
[3] = dose: 100.0 mg/kg/injection, schedule: Q01DX001 (ip), vehicle: saline with Tween-80
[4] = dose: 50.0 mg/kg/injection, schedule: Q01DX009 (ip), vehicle: other
[5] = dose: 100.0 mg/kg/injection, schedule: Q01DX009 (ip), vehicle: other
[6] = dose: 400.0 mg/kg/injection, schedule: Q01DX001 (ip), vehicle: carboxymethylcellulose (CMC)
[7] = dose: 200.0 mg/kg/injection, schedule: Q04DX003 (ip), vehicle: Klucel (hydroxypropylcellulose) (HPC)
[8] = dose: 400.0 mg/kg/injection, schedule: Q04DX003 (ip), vehicle: saline with Tween-80
[9] = dose: 300.0 mg/kg/injection, schedule: Q01DX001 (ip), vehicle: carboxymethylcellulose (CMC)
[10] = dose: 100.0 mg/kg/injection, schedule: Q01DX001 (ip), vehicle: saline
[11] = dose: 200.0 mg/kg/injection, schedule: Q01DX001 (ip), vehicle: saline
[12] = dose: 400.0 mg/kg/injection, schedule: Q01DX001 (ip), vehicle: saline
[13] = dose: 100.0 mg/kg/injection, schedule: Q01DX009 (ip), vehicle: saline with Tween-80
[14] = dose: 400.0 mg/kg/injection, schedule: Q01DX009 (ip), vehicle: Klucel (hydroxypropylcellulose) (HPC)

Structure (SMILES): CCC(C)C(C)NC(C)=O (configuration not stated)
- survivor count [1]: 2 of 6

Structure (SMILES): NC(N)=N/N=C(\c1ccc(Cl)cc1)C1CC1
- survivor count (dose: 120.0 mg/kg/injection, schedule: Q01DX Z (ip), vehicle: methylcellulose (MC)): 0 of 6
- survivor count (dose: 120.0 mg/kg/injection, schedule: Q01DX Z (oral), vehicle: methylcellulose (MC)): 5 of 6
- survivor count (dose: 625.0 mg/kg/injection, schedule: Q01DX Z (oral), vehicle: methylcellulose (MC)): 5 of 7

Structure (SMILES): COc1cc(C)c(Cl)[n+]([O-])n1
- survivor count (dose: 50.0 mg/kg/injection, schedule: Q04DX002 (ip), vehicle: saline with Tween-80): 1 of 3
- survivor count (dose: 100.0 mg/kg/injection, schedule: Q04DX002 (ip), vehicle: saline with Tween-80): 0 of 3
- survivor count [2]: 0 of 3

Structure (SMILES): CCNC(=O)N1CCN(c2ccc(Cl)cc2)CC1
- survivor count (dose: 300.0 mg/kg/injection, schedule: Q01DX001 (ip), vehicle: saline): 2 of 6

Structure (SMILES): O=C1C2C3SC(c4nc5ccccc5cc43)C2C(=O)N1c1ccccc1 (configuration not stated)
- survivor count [3]: 3 of 3
- survivor count (dose: 200.0 mg/kg/injection, schedule: Q01DX001 (ip), vehicle: saline with Tween-80): 3 of 3

Structure (SMILES): CCCCC(CCCC)NCC(C)OC(=O)c1ccc(N)cc1 (configuration not stated)
- survivor count (dose: 150.0 mg/kg/injection, schedule: Q01DX001 (ip), vehicle: other): 0 of 6
- survivor count (dose: 300.0 mg/kg/injection, schedule: Q01DX001 (ip), vehicle: other): 0 of 6

Structure (SMILES): CCCCNC(=O)OCc1cnc(C)n1Cc1ccccc1
- T/C [4]: 93, 104, 109 % of control
- survivor count [4]: 3 of 6
- T/C [5]: 94, 97, 98 % of control
- survivor count [5]: 3 of 3
- survivor count (dose: 200.0 mg/kg/injection, schedule: Q01DX009 (ip), vehicle: other): 1 of 6 and 1 of 3
- survivor count [6]: 3 of 6
- survivor count (dose: 400.0 mg/kg/injection, schedule: Q04DX002 (ip), vehicle: other): 0 of 3 and 0 of 6

Structure (SMILES): CCN(CC)Cc1c(C)cc2oc(=O)c3c(c2c1O)CCCC3
- survivor count [6]: 1 of 4

Structure (SMILES): O=C1C=C(O)c2ccccc2C1=O
- survivor count (dose: 62.5 mg/kg/injection, schedule: Q01DX Z (ip), vehicle: other): 0 of 6
- survivor count (dose: 125.0 mg/kg/injection, schedule: Q01DX Z (ip), vehicle: other): 0 of 6
- survivor count (dose: 250.0 mg/kg/injection, schedule: Q01DX Z (ip), vehicle: other): 0 of 6

Structure (SMILES): Cc1ccnc(NS(=O)(=O)c2ccc(N=Nc3nc4[nH]c(N)nc(=S)c4[nH]3)cc2)n1
- T/C (dose: 3.13 mg/kg/injection, schedule: Q01DX009 (ip), vehicle: Klucel (hydroxypropylcellulose) (HPC)): 134 and 145 % of control
- T/C (dose: 6.25 mg/kg/injection, schedule: Q01DX009 (ip), vehicle: Klucel (hydroxypropylcellulose) (HPC)): 125 and 136 % of control
- survivor count (dose: 25.0 mg/kg/injection, schedule: Q01DX009 (ip), vehicle: Klucel (hydroxypropylcellulose) (HPC)): 6 of 6
- T/C (dose: 25.0 mg/kg/injection, schedule: Q04DX003 (ip), vehicle: Klucel (hydroxypropylcellulose) (HPC)): 146 % of control
- survivor count (dose: 50.0 mg/kg/injection, schedule: Q01DX009 (ip), vehicle: Klucel (hydroxypropylcellulose) (HPC)): 6 of 6
- survivor count (dose: 100.0 mg/kg/injection, schedule: Q04DX003 (ip), vehicle: Klucel (hydroxypropylcellulose) (HPC)): 2 of 6
- survivor count [7]: 0 of 6
- survivor count (dose: 400.0 mg/kg/injection, schedule: Q04DX003 (ip), vehicle: Klucel (hydroxypropylcellulose) (HPC)): 0 of 6

Structure (SMILES): CCCCCC1CCC(C(=O)O)CC1 (configuration not stated)
- survivor count [8]: 2 of 6

Structure (SMILES): CNC(=Nc1ccccc1)c1ccc(NC(=O)c2ccc(C(=O)Nc3ccc(C(=Nc4ccccc4)NC)cc3)cc2)cc1
- survivor count (dose: 120.0 mg/kg/injection, schedule: Q01DX Z (ip), vehicle: saline): 2 of 6

Structure (SMILES): O=C(CN1C2CCC1CC(O)C2)NCC1C(c2ccccc2)C1c1ccccc1 (configuration not stated)
- survivor count (dose: 100.0 mg/kg/injection, schedule: Q04DX002 (ip), vehicle: Klucel (hydroxypropylcellulose) (HPC)): 2 of 3
- survivor count (dose: 200.0 mg/kg/injection, schedule: Q04DX002 (ip), vehicle: Klucel (hydroxypropylcellulose) (HPC)): 1 of 3
- survivor count (dose: 400.0 mg/kg/injection, schedule: Q04DX002 (ip), vehicle: Klucel (hydroxypropylcellulose) (HPC)): 0 of 3

Structure (SMILES): Nc1ccc2ncccc2c1[N+](=O)[O-]
- survivor count (dose: 400.0 mg/kg/injection, schedule: Q01DX001 (ip), vehicle: other): 0 of 6

Structure (SMILES): O=[N+]([O-])c1ccccc1SNc1ccc(NSc2ccccc2[N+](=O)[O-])cc1
- survivor count (dose: 25.0 mg/kg/injection, schedule: Q01DX001 (ip), vehicle: saline with Tween-80): 6 of 6
- survivor count (dose: 50.0 mg/kg/injection, schedule: Q01DX001 (ip), vehicle: saline with Tween-80): 6 of 6
- survivor count [3]: 6 of 6

Structure (SMILES): O=C(Oc1ccccc1I)c1cc(I)c(I)c(I)c1
- survivor count [7]: 5 of 6

Structure (SMILES): CC(CN1c2ccccc2Sc2ccc(Cl)cc21)N(C)CCCl (configuration not stated)
- survivor count (dose: 150.0 mg/kg/injection, schedule: Q01DX001 (ip), vehicle: carboxymethylcellulose (CMC)): 1 of 6 and 3 of 6
- T/C [9]: 126 % of control [4 of 6 alive]
- survivor count [9]: 0 of 6

Structure (SMILES): C=C1CC[N+]2(CC(=O)c3ccc(Br)cc3)CCCC12 (configuration not stated)
- survivor count [10]: 2 of 6
- survivor count [11]: 1 of 6
- survivor count [12]: 0 of 6

Structure (SMILES): Cc1cccc(C)[n+]1CC(=O)CCCCCCC(=O)C[n+]1c(C)cccc1C
- survivor count (dose: 50.0 mg/kg/injection, schedule: Q01DX001 (ip), vehicle: saline): 0 of 6
- survivor count [10]: 0 of 6
- survivor count [11]: 0 of 6

Structure (SMILES): O=C(O)CCC(=O)Nc1ccccc1C(F)(F)F
- survivor count [13]: 6 of 6

Structure (SMILES): COc1ccccc1NC(=O)NCCN1CCCC1
- survivor count [14]: 0 of 6

Structure (SMILES): [O-]/[N+](=C\c1ccc(/C=[N+](\[O-])c2ccccc2)cc1)c1ccccc1
- survivor count [10]: 4 of 4
- survivor count [11]: 4 of 4
- survivor count [12]: 4 of 4

Structure (SMILES): CCCCCCOC(=O)C(N)Cc1ccc(N(CCCl)CCCl)cc1 (configuration not stated)
- T/C (dose: 22.5 mg/kg/injection, schedule: Q01DX009 (ip), vehicle: other): 140 % of control
- T/C (dose: 45.0 mg/kg/injection, schedule: Q01DX001 (ip), vehicle: other): 128 % of control

Structure (SMILES): Cc1cscc(C)c1=S
- survivor count [13]: 3 of 6
- survivor count (dose: 200.0 mg/kg/injection, schedule: Q01DX009 (ip), vehicle: saline with Tween-80): 1 of 6
- survivor count (dose: 400.0 mg/kg/injection, schedule: Q01DX009 (ip), vehicle: saline with Tween-80): 2 of 6

Structure (SMILES): CCCCOP(=O)(OCCCC)c1ccccc1OC
- survivor count [2]: 1 of 3
- survivor count (dose: 400.0 mg/kg/injection, schedule: Q04DX002 (ip), vehicle: saline with Tween-80): 0 of 3

Structure (SMILES): C[N+](C)(C)CSc1ccccc1-n1cccc1
- survivor count (dose: 100.0 mg/kg/injection, schedule: Q01DX009 (ip), vehicle: Klucel (hydroxypropylcellulose) (HPC)): 0 of 6
- survivor count (dose: 200.0 mg/kg/injection, schedule: Q01DX009 (ip), vehicle: Klucel (hydroxypropylcellulose) (HPC)): 0 of 6
- survivor count [14]: 0 of 6

Structure (SMILES): CCCCCCCCCCCCNC(=O)C[n+]1cccc(C(=O)N(CC)CC)c1
- survivor count (dose: 100.0 mg/kg/injection, schedule: Q04DX003 (ip), vehicle: saline): 1 of 6
- survivor count (dose: 200.0 mg/kg/injection, schedule: Q04DX003 (ip), vehicle: saline): 0 of 6
- survivor count [1]: 0 of 6

Structure (SMILES): CC(C)N1CNC(=O)C12CCN(CC1COc3ccccc3O1)CC2 (configuration not stated)
- survivor count [8]: 1 of 6

Structure (SMILES): OCC(O)C(O)C(O)C(O)C(c1ccc(F)cc1)c1ccc(F)cc1 (configuration not stated)
- survivor count [11]: 1 of 4
- survivor count [12]: 0 of 4

Structure (SMILES): CCCCCCCCCCCCCCCC(=O)OCC1OC(CO)(OC2OC(CO)C(O)C(O)C2O)C(O)C1O (configuration not stated)
- survivor count [14]: 2 of 6
